Results taken from PubChem BioAssay AID330 (DTP/NCI, 2004).
The list does not hold the whole screen: it gathers tests that were run many times, whatever their T/C, doses with no T/C, and many T/C values between a quarter and a half above the control. Other doses and runs of a compound stand elsewhere. T/C: endpoint of the treated group in % of that of the vehicle group. Some doses have a count of surviving animals in place of a T/C: the source holds a T/C of zero for them, seemingly a mark for toxic or unscored doses. Some doses without a T/C left all or most animals alive at the check, yet need not have been tolerated: the source hardly ever lists a survival T/C far under the control, and the zero likely stands for such cases as well. Survivors were counted at the toxicity check, usually on the fifth day, unless a day is given; later deaths do not show. Schedule codes are those of the source, taken here to give the interval after Q, in days (D) or hours (H), and the number of doses after X. Additions like (4×) stand for listed records that agree. Some structures stand for samples that the source files as different forms (salt, stereo form or complex); doses refer to the form tested. Some entries were tested several times; their values stand side by side, smallest first. For survival time, this PubChem deposit counts one and a half times the control or more as active, and values a quarter to a half above the control carry no call in these data; other NCI protocols may use other cut-offs.

System: P388 leukemia ip, CD2F1 mice, survival T/C
Test: NCI In Vivo Anticancer Drug Screen. Data for tumor model P388 Leukemia (intraperitoneal) in CD2F1 (CDF1) mice
Conditions: T/C endpoint: median survival time, higher T/C = longer survival
[1] = dose: 60.0 mg/kg/injection, schedule: Q01DX005 (ip), vehicle: saline
[2] = dose: 120.0 mg/kg/injection, schedule: Q01DX005 (ip), vehicle: saline
[3] = dose: 240.0 mg/kg/injection, schedule: Q01DX005 (ip), vehicle: saline
[4] = dose: 50.0 mg/kg/injection, schedule: Q01DX005 (ip), vehicle: Klucel (hydroxypropylcellulose) (HPC)
[5] = dose: 100.0 mg/kg/injection, schedule: Q01DX005 (ip), vehicle: Klucel (hydroxypropylcellulose) (HPC)
[6] = dose: 200.0 mg/kg/injection, schedule: Q01DX005 (ip), vehicle: Klucel (hydroxypropylcellulose) (HPC)
[7] = dose: 25.0 mg/kg/injection, schedule: Q01DX009 (ip), vehicle: saline with Tween-80
[8] = dose: 50.0 mg/kg/injection, schedule: Q01DX009 (ip), vehicle: saline with Tween-80
[9] = dose: 50.0 mg/kg/injection, schedule: Q01DX005 (ip), vehicle: saline with Tween-80
[10] = dose: 50.0 mg/kg/injection, schedule: Q04DX003 (ip), vehicle: saline with Tween-80
[11] = dose: 100.0 mg/kg/injection, schedule: Q04DX003 (ip), vehicle: saline with Tween-80

With `CC(=O)/C(=C\c1c(Cl)cccc1Cl)C(=O)CCN(C)C` the survivor count [1] was 1 of 6, the survivor count [2] was 0 of 6 and the survivor count [3] was 0 of 6.
In the case of `CCc1c(CNc2ccc(Cl)c(Cl)c2)ccc2nc(N)nc(N)c12`, the T/C (dose: 25.0 mg/kg/injection, schedule: Q01DX005 (ip), vehicle: Klucel (hydroxypropylcellulose) (HPC)) is reported as 127 and 130 % of control, the T/C [4] is reported as 140 % of control (2×) and the survivor count [5] is reported as 3 of 6 and 6 of 6. For the same molecule, the survivor count [6] was 2 of 6.
For `Cc1cc2n[se]nc2cc1C`, the survivor count (dose: 50.0 mg/kg/injection, schedule: Q01DX009 (ip), vehicle: Klucel (hydroxypropylcellulose) (HPC)) was 5 of 6.
In the case of `COC(=O)C(F)C(Br)C(=O)OC` (stereo not given), the T/C [7] is reported as 131 % of control, the T/C [8] is reported as 136 % of control and the survivor count (dose: 100.0 mg/kg/injection, schedule: Q01DX009 (ip), vehicle: saline with Tween-80) is reported as 3 of 6 (2×). For the same molecule, the survivor count (dose: 200.0 mg/kg/injection, schedule: Q01DX009 (ip), vehicle: saline with Tween-80) was 0 of 6 (2×) and the survivor count (dose: 400.0 mg/kg/injection, schedule: Q01DX009 (ip), vehicle: saline with Tween-80) was 0 of 6.
`COC(=O)c1cc(O)c2c(c1C(=O)OC)C[C@H]1[C@@H]3CCC4=CC(=O)CC[C@]4(C)[C@H]3CC[C@]21C` was tested, and the survivor count (dose: 6.0 mg/kg/injection, schedule: Q01DX005 (ip), vehicle: saline with Tween-80) was 6 of 6, the survivor count (dose: 12.5 mg/kg/injection, schedule: Q01DX005 (ip), vehicle: saline with Tween-80) was 6 of 6 and the survivor count (dose: 25.0 mg/kg/injection, schedule: Q01DX005 (ip), vehicle: saline with Tween-80) was 6 of 6. For the same molecule, the survivor count [9] was 6 of 6 and the survivor count (dose: 100.0 mg/kg/injection, schedule: Q01DX005 (ip), vehicle: saline with Tween-80) was 6 of 6.
`COC(=O)CC12CC3(C)CC(C)(C1)CC(CC(=O)OC)(C3)C2` was tested, and the T/C [8] was 127 % of control.
For `Oc1cc(CN2CCOCC2)c(O)cc1CN1CCOCC1`, the T/C (dose: 6.25 mg/kg/injection, schedule: Q01DX009 (ip), vehicle: saline with Tween-80) was 126 % of control, the T/C (dose: 12.5 mg/kg/injection, schedule: Q01DX009 (ip), vehicle: saline with Tween-80) was 126 % of control and the T/C [7] was 128 % of control.
For `Cn1c2ccccc2c(=Nc2ccc(S(N)(=O)=O)cc2)c2ccccc21`, the survivor count [9] was 6 of 6 and the survivor count (dose: 200.0 mg/kg/injection, schedule: Q01DX005 (ip), vehicle: saline with Tween-80) was 3 of 6.
`O=C(O)C1(Cc2ccc(O)cc2)NCCS1` (stereo not given) was tested, and the survivor count (dose: 400.0 mg/kg/injection, schedule: Q04DX002 (ip), vehicle: Klucel (hydroxypropylcellulose) (HPC)) was 3 of 6.
With `COc1ccc2c(c1)[C@@]13CCCC[C@H]1[C@@H](C2)[N+](C)=CC3=NO` the survivor count (dose: 120.0 mg/kg/injection, schedule: Q01DX005 (ip), vehicle: Klucel (hydroxypropylcellulose) (HPC)) was 6 of 6 and the survivor count (dose: 240.0 mg/kg/injection, schedule: Q01DX005 (ip), vehicle: Klucel (hydroxypropylcellulose) (HPC)) was 6 of 6.
`CC1CC(C)N(C)C(C)C1` (stereo not given) was tested, and the survivor count [1] was 2 of 6, the survivor count [2] was 0 of 6 and the survivor count [3] was 0 of 6.
In the case of `O=[n+]1c2ccccc2n([O-])c2ccccc21.[Cl][Ni][Cl]`, the survivor count [10] is reported as 2 of 6, the survivor count [11] is reported as 0 of 6 and the survivor count (dose: 200.0 mg/kg/injection, schedule: Q04DX003 (ip), vehicle: saline with Tween-80) is reported as 0 of 6. For the same molecule, the survivor count (dose: 400.0 mg/kg/injection, schedule: Q04DX003 (ip), vehicle: saline with Tween-80) was 0 of 6.
In the case of `Cc1ccc(-c2nc(N)[nH]c2-c2ccc(C)cc2)cc1`, the survivor count (dose: 100.0 mg/kg/injection, schedule: Q04DX002 (ip), vehicle: saline with Tween-80) is reported as 0 of 6, the survivor count (dose: 200.0 mg/kg/injection, schedule: Q04DX002 (ip), vehicle: saline with Tween-80) is reported as 0 of 6 and the survivor count (dose: 400.0 mg/kg/injection, schedule: Q04DX002 (ip), vehicle: saline with Tween-80) is reported as 0 of 6.
With `COC(=O)/C(=C/Cl)NC(C)=O` the survivor count (dose: 100.0 mg/kg/injection, schedule: Q01DX001 (ip), vehicle: suspension in saline) was 6 of 6 and the survivor count (dose: 400.0 mg/kg/injection, schedule: Q01DX001 (ip), vehicle: suspension in saline) was 6 of 6.
With `O=C1C=C(NCCCC2CCCN3CCCCC23)C(=O)c2ccccc21` (stereo not given) the survivor count [4] was 0 of 6, the survivor count [5] was 0 of 6 and the survivor count [6] was 0 of 6.
For `CCC1(O)CC(OC2CC(N(C)C)C(OC3CC(O)C(O)C(C)O3)C(C)O2)c2c(cc3c(c2O)C(=O)c2c(O)ccc(O)c2C3=O)C1C(=O)OC` (stereo not given), the T/C (dose: 12.5 mg/kg/injection, schedule: Q04DX003 (ip), vehicle: Klucel (hydroxypropylcellulose) (HPC)) was 125 % of control and the T/C (dose: 25.0 mg/kg/injection, schedule: Q04DX003 (ip), vehicle: Klucel (hydroxypropylcellulose) (HPC)) was 129 % of control.
With `COc1cc([C@H]2OC[C@H]3[C@@H]2CO[C@@H]3c2ccc(OC(C)=O)c(OC)c2)ccc1OC(C)=O` the survivor count [4] was 6 of 6, the survivor count [5] was 5 of 5 and the survivor count [6] was 5 of 5.
For `c1nc(N2CCOCC2)c2[nH]cnc2n1`, the survivor count [5] was 6 of 6.
`CCOC(=O)C(Cc1c[nH]c2ccccc12)NC(=O)[C@@]1(O)[C@H](O)[C@]2(CC)C=CCN3CC[C@@]4(c5cc([C@@]6(C(=O)OC)C[C@@H]7CN(CCc8c6[nH]c6ccccc86)C[C@](O)(CC)C7)c(OC)cc5N(C)[C@@H]14)[C@@H]32` (stereo not given in full) was tested, and the T/C (dose: 16.0 mg/kg/injection, schedule: Q01DX001 (ip), vehicle: saline, evaluated on day 20) was 133 % of control and the T/C (dose: 16.0 mg/kg/injection, schedule: Q01DX001 (ip), vehicle: saline, evaluated on day 30) was 134 % of control.
`COc1cc2c(c(C(C)(C)C)c1)OC1(O)C2=CC(=O)C=C1C(C)(C)C` (stereo not given) was tested, and the survivor count [6] was 0 of 6.
With `CCOC(=O)NOP(=O)(N1CC1)N1CC1` the T/C (dose: 25.0 mg/kg/injection, schedule: Q01DX001 (ip), vehicle: saline + alcohol) was 144 % of control and the T/C (dose: 100.0 mg/kg/injection, schedule: Q01DX001 (ip), vehicle: saline + alcohol) was 134 % of control.
`COc1ccc(CSC(=S)Nc2cc(Cl)c(Cl)cc2Cl)cc1` was tested, and the survivor count (dose: 200.0 mg/kg/injection, schedule: Q01DX009 (ip), vehicle: suspension in saline) was 2 of 6.
With `COc1cc(C=O)c(C=O)cc1OC` the survivor count [10] was 3 of 6 and the survivor count [11] was 0 of 6.
In the case of `CC(O)(CO)C(C)(O)C(C)(O)c1cn(O)c(=N)c(C(=O)OCc2ccccc2)n1` (stereo not given), the survivor count (dose: 400.0 mg/kg/injection, schedule: Q04DX003 (ip), vehicle: saline) is reported as 1 of 6.
For `CCCCCCCCCCCCCCCC[N+](C)(C)CCOC(C)=O`, the survivor count [8] was 3 of 6 and the survivor count (dose: 50.0 mg/kg/injection, schedule: Q01DX009 (ip), vehicle: saline) was 3 of 6.
For `O=c1[nH]cnc2ncnn12`, the survivor count (dose: 100.0 mg/kg/injection, schedule: Q01DX009 (ip), vehicle: suspension in saline) was 6 of 6.
With `CN(N=O)C(=O)N[C@@H](C=O)[C@@H](O)[C@H](O)[C@H](O)CO` the T/C (dose: 120.0 mg/kg/injection, schedule: Q04DX003 (ip), vehicle: citric acid) was 125 % of control, the T/C (dose: 120.0 mg/kg/injection, schedule: Q04DX003 (ip), vehicle: other) was 137 % of control and the T/C (dose: 180.0 mg/kg/injection, schedule: Q04DX003 (ip), vehicle: other) was 128 % of control. For the same molecule, the T/C (dose: 250.0 mg/kg/injection, schedule: Q01DX001 (ip), vehicle: other) was 125 and 137 % of control and the T/C (dose: 500.0 mg/kg/injection, schedule: Q01DX001 (ip), vehicle: other) was 130 % of control.
With `CC(=O)NNC(=O)C(Cl)Cl` the survivor count (dose: 100.0 mg/kg/injection, schedule: Q01DX009 (ip), vehicle: saline) was 6 of 6 and the survivor count (dose: 200.0 mg/kg/injection, schedule: Q01DX009 (ip), vehicle: saline) was 0 of 6.
For `O=C1C=CC2(CCCCC2)CC1`, the survivor count (dose: 100.0 mg/kg/injection, schedule: Q04DX003 (ip), vehicle: Klucel (hydroxypropylcellulose) (HPC)) was 0 of 6, the survivor count (dose: 200.0 mg/kg/injection, schedule: Q04DX003 (ip), vehicle: Klucel (hydroxypropylcellulose) (HPC)) was 1 of 6 and the survivor count (dose: 400.0 mg/kg/injection, schedule: Q04DX003 (ip), vehicle: Klucel (hydroxypropylcellulose) (HPC)) was 0 of 6.
